{"source": "paper PMC10418725", "about": "“Trypsin from Pyloric Caeca of Asian Seabass: Purification, Characterization, and Its Use in the Hydrolysis of Acid-Soluble Collagen” (Foods, 2023)", "test_system": "purified trypsin (PT) from the pyloric caeca of Asian seabass", "assay": "inhibition of BAPNA hydrolysis after […] min preincubation", "assay_type": "biochemical, Lates calcarifer", "conditions": "pH 8.5, 60 °C, 10 mM CaCl2, BAPNA substrate", "note": "Non-standard residues stand in square brackets, D forms with d. Residues, ends and D or L forms follow the SMILES beside them. *: point of attachment. Sta = CC(C)C[C@H](N)[C@@H](O)CC(=O)O; Isovaleryl = CC(C)CC(=O)*"}
{"molecule": "Cc1ccc(S(=O)(=O)N[C@@H](CCCCN)C(=O)CCl)cc1", "note": "[TLCK]", "values": [{"measurement": "% Inhibition", "setting": "5000 µM, covalent", "result": "93.62 ± 0.44", "unit": "%"}]}
{"molecule": "CC(C)C[C@H](NC(=O)[C@H]1O[C@@H]1C(=O)O)C(=O)NCCCCN=C(N)N", "note": "[E-64]", "values": [{"measurement": "% Inhibition", "setting": "100 µM", "result": "3.55 ± 0.89", "unit": "%"}]}
{"molecule": "Cc1ccc(S(=O)(=O)N[C@@H](Cc2ccccc2)C(=O)CCl)cc1", "note": "[TPCK]", "values": [{"measurement": "% Inhibition", "setting": "5000 µM", "result": "3.44 ± 1.75", "unit": "%"}]}
{"molecule": "O=C(O)CI", "note": "[Iodoacetic acid]", "values": [{"measurement": "% Inhibition", "setting": "1000 µM", "result": "1.35 ± 1.01", "unit": "%"}]}
{"molecule": "CC(C)CC(=O)N[C@H](C(=O)N[C@H](C(=O)N[C@@H](CC(C)C)[C@@H](O)CC(=O)N[C@@H](C)C(=O)N[C@@H](CC(C)C)[C@@H](O)CC(=O)O)C(C)C)C(C)C", "note": "[Pepstatin A] (Isovaleryl-VV[Sta]A[Sta]-OH)", "values": [{"measurement": "% Inhibition", "setting": "10 µM", "result": "0.73 ± 0.72", "unit": "%"}]}
